The source of these data is publication PMC6555593.

Sequences of proteins named here, by UniProt entry; tags and fusion partners are left off. A change or cut given only in a name is not applied to a line headed by its entry.
UniProt Q9Y490: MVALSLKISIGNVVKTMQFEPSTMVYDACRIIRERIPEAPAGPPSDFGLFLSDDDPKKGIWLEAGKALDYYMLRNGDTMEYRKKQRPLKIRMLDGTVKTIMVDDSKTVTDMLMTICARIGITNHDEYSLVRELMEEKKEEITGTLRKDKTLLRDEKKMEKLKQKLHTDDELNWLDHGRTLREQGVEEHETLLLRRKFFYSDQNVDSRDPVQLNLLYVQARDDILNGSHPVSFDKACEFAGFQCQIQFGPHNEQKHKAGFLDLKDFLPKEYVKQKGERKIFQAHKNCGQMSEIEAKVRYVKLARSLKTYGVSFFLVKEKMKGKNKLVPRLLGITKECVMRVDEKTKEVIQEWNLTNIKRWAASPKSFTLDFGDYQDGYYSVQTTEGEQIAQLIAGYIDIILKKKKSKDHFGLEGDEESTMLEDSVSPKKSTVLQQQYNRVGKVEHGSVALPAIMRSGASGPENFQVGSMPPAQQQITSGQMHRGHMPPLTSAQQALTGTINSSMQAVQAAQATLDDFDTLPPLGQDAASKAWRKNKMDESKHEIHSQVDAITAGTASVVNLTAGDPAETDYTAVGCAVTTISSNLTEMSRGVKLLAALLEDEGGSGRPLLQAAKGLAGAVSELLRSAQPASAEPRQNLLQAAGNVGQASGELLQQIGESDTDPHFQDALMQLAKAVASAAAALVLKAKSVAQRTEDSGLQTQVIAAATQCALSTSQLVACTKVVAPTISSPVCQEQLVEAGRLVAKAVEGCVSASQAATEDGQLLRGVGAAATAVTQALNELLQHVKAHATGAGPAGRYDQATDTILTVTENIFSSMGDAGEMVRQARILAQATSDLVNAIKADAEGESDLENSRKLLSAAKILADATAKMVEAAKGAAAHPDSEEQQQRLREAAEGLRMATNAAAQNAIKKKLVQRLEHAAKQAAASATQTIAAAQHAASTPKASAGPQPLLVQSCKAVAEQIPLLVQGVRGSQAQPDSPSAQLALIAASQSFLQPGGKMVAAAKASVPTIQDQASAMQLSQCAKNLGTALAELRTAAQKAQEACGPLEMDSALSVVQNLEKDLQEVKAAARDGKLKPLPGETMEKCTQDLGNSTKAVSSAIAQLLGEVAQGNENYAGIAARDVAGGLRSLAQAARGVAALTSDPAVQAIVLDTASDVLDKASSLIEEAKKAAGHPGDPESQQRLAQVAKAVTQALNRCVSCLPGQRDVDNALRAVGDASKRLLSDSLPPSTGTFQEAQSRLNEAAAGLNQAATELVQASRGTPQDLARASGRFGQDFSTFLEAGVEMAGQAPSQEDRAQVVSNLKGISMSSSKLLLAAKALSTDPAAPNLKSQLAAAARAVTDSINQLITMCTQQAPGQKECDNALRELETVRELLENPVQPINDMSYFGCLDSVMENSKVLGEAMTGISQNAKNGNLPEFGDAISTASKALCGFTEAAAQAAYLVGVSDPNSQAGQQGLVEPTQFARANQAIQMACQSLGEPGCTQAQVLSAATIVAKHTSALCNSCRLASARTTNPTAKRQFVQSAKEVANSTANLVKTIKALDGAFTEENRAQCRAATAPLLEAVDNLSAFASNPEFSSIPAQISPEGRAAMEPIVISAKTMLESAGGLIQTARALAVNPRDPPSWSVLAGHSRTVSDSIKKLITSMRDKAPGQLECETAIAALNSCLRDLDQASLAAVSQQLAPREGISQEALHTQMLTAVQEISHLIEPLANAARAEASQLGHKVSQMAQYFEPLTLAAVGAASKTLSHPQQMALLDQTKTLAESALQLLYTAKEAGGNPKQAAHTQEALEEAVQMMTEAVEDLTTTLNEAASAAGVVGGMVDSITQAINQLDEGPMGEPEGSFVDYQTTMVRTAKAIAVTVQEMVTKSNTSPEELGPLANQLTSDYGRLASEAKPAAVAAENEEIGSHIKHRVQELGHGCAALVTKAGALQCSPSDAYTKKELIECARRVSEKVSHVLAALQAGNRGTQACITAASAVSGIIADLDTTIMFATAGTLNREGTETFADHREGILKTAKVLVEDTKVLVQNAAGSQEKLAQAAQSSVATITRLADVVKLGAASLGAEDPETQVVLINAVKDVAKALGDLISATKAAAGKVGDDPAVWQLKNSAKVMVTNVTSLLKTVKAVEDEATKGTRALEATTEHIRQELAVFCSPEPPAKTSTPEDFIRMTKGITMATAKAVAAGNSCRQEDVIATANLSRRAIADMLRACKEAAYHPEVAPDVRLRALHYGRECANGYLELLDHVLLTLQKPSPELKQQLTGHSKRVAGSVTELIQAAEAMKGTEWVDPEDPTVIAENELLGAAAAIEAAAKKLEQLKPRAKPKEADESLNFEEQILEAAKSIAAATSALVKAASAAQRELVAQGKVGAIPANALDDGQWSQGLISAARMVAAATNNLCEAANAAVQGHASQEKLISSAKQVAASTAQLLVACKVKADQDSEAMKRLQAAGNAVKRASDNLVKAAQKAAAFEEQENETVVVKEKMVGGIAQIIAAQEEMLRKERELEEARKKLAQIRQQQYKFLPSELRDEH
UniProt P05556: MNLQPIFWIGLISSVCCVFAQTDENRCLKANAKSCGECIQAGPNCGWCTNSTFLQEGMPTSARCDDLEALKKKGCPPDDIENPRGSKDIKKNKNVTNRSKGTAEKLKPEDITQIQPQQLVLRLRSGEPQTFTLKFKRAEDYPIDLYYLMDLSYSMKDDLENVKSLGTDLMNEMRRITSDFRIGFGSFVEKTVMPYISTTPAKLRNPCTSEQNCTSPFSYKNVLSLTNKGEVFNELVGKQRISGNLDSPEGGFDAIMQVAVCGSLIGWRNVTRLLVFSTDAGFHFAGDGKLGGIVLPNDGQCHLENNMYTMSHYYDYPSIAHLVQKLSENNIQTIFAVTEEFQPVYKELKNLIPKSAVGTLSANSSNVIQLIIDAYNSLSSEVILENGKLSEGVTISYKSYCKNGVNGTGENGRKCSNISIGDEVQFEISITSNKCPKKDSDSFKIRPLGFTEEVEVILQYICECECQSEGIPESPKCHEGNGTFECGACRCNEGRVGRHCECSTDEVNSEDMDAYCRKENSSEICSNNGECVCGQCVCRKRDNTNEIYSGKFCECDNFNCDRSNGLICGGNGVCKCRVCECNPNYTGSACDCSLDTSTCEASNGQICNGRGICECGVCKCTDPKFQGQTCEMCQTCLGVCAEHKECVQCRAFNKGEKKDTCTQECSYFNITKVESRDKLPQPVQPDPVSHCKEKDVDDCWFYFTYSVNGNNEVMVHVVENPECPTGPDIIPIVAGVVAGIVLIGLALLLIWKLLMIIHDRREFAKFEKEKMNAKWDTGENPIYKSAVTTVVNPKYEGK

The experiment concerns the target Talin1 (human (endogenous in hCAFs)) (UniProt Q9Y490). The experiment in a line: co-IP; hCAFs (control shSCR or Ddr2-depleted shDDR2), serum starved, plated on collagen I coated plates or no collagen for 1 hr; lysed in 20 mM Tris pH 7.5, 1% Triton X-100, 0.1% SDS, 150 mM CaCl2; precipitated with talin1 antibody and Protein G Sepharose; blotted for integrin β1.

No constants are given. Whether binding was seen depends on the method and setting. Binding seen in cells or lysates may run through a third protein. Some binding calls cover weakened binding; strength is not graded here.

On to “β1 Integrin (from UniProt P05556 21-798) (receptor)”, for which the binding result is “binds”.
